Percent effect of library compounds

Amino acid sequences for entries named in this document (tags omitted). Residues count along the entry.
UniProt Q8IDJ8, 1-583: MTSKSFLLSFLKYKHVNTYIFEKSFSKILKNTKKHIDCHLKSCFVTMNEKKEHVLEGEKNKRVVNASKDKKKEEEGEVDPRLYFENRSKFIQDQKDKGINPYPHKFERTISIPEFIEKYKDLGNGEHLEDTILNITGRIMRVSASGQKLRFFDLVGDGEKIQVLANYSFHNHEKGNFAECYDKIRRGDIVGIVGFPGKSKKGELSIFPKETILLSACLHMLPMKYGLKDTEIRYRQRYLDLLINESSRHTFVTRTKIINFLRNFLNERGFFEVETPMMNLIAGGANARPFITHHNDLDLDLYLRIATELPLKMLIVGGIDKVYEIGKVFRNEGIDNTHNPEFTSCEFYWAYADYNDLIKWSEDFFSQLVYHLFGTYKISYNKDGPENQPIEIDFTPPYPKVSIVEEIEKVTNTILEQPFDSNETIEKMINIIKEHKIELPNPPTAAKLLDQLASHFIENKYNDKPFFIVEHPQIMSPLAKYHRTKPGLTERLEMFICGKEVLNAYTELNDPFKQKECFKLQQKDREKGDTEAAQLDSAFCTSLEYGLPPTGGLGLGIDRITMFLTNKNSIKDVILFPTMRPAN
UniProt Q4DA54, 1-478: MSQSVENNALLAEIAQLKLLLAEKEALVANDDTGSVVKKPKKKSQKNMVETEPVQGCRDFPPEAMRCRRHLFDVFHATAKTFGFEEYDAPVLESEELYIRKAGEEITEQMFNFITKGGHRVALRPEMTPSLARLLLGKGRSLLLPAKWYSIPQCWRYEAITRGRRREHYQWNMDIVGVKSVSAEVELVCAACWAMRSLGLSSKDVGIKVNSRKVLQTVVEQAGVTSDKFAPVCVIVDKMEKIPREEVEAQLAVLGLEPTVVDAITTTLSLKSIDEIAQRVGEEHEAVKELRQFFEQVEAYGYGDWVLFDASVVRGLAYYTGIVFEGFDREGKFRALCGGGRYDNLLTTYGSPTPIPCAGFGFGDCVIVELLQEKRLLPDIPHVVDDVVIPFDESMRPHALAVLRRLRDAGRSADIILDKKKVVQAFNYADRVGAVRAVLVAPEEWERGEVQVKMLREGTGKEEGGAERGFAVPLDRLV
UniProt I6X8D2, whole entry: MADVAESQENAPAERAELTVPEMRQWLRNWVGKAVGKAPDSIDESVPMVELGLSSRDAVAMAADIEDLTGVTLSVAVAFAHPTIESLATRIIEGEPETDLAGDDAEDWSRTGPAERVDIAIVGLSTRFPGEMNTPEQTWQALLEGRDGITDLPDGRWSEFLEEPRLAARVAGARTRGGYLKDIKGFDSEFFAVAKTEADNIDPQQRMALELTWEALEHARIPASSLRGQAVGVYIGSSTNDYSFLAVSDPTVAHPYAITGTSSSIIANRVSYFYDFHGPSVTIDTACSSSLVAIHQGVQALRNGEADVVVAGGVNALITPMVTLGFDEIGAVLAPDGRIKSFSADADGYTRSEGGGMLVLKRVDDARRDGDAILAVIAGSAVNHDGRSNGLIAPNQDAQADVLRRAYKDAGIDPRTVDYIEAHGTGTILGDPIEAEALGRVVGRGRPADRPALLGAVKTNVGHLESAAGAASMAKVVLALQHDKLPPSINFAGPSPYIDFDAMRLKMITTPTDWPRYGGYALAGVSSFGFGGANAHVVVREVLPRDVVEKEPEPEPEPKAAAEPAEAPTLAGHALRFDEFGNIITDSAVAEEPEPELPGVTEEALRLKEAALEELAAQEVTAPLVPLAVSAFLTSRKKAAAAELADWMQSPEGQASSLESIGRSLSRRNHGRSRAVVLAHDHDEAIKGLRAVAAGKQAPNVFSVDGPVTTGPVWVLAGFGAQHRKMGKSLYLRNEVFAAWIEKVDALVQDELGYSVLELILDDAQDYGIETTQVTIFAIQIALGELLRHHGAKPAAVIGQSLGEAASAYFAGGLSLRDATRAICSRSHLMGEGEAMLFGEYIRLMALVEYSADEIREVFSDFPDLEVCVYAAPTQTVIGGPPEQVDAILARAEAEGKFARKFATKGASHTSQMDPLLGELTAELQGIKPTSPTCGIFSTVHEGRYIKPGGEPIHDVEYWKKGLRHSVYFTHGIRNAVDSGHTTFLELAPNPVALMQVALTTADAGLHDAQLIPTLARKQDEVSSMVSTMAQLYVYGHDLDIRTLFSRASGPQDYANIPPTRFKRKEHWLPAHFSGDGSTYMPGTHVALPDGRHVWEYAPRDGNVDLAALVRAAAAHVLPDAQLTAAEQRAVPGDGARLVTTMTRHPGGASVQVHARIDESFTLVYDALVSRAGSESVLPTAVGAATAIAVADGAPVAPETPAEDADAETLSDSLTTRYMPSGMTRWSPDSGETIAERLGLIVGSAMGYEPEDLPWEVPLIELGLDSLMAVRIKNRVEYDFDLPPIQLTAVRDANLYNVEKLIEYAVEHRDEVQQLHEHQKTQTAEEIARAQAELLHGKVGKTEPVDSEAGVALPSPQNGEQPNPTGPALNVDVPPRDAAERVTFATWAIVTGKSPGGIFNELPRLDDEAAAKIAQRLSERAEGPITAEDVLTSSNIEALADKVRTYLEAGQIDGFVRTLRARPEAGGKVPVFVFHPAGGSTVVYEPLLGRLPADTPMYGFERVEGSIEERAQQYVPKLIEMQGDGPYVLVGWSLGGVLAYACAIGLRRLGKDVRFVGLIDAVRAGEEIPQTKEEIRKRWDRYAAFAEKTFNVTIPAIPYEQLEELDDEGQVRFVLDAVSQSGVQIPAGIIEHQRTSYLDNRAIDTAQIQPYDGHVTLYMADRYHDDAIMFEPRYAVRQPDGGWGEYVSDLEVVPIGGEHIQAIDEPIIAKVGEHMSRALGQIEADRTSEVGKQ

PfKRS1: 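Lysine-tRNA ligase, Plasmodium falciparum 3D7 (UniProt Q8IDJ8). Enzyme assay of the cytosolic lysyl-tRNA synthetase in 384-well plates, read by luminescence. Concentration: 30 µM. Direction is inferred from only a few compounds that gave an IC50; most scored high, so higher reads as stronger inhibition. About 69,000 compounds were tested under these conditions; 0.071% (about 49) showed 50% or more at least once.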
TcHisRS: 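Enzyme assay of histidyl-tRNA synthetase; the read-out is not stated. Target: Histidine-tRNA ligase, Trypanosoma cruzi CL Brener (UniProt Q4DA54). Tested at 30 µM. Higher reads as stronger inhibition (inferred: compounds with an IC50 in retests scored well above the rest). Size under these conditions: about 69,000 compounds, about 31 of them at 50% or above in at least one test.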
Pks13 thioesterase: 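Enzyme assay of the thioesterase domain of polyketide synthase 13; the read-out is not stated. Target: Polyketide synthase Pks13, Mycobacterium tuberculosis (UniProt I6X8D2). Concentration: 30 µM. The record gives no direction; the compounds picked for IC50 retests had high values, so higher reads as stronger inhibition. About 67,000 compounds were tested under these conditions; 0.46% (about 300) showed 50% or more at least once.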

Values are the deposited “Percent Effect”, in %. The record does not define 0% and 100%; most values in the screen are far below 50% and negative numbers occur (in some assays of this library far below -100). The compounds are a random part of those screened. A dash means the value is not listed here; it may have been measured.

| Compound | PfKRS1 | TcHisRS | Pks13 thioesterase |
|---|---|---|---|
| `O=C(NCCN1CCOCC1)Nc1cnc2cc(Cl)ccc2c1O` | 0.1551% | -1.064% | -28.93% |
| `COCCNC(=O)Cn1c(-c2ccc(F)cc2)nc(C)c(CCO)c1=O` | 4.334% | 11% | -4.082% |
| `Cc1cnn(CC2CCCN2C(=O)c2cccc(CC#N)c2)c1` (stereo not drawn) | 6.459% | 0.7519% | -43.38% |
| `CCOc1cccc(C(C)NCc2c(C)nn(C)c2N(C)C)c1` (stereo not drawn) | -0.6224% | 1.143% | 4.677% |
| `Cc1noc(C)c1CNC(=O)N1CCC(OCC2CC2)CC1` | -2.838% | 0% | -10.33% |
| `CNS(=O)(=O)c1cc(C(=O)NC2CCOc3ccccc32)cc(C)c1C` (stereo not drawn) | -3.796% | 5.435% | -143.2% |
| `Cc1nn(C)c2cnn(Cc3ccc(C(=O)NCC4CC4)o3)c12` | 2.013% | 3.982% | -9.969% |
| `CC(C)(C)n1ncc2c1CCCC2NCc1cccc2c1OCO2` (stereo not drawn) | 0.4839% | 4.135% | -10.97% |
| `COc1ccc(CN2CCOCC3(CCN(C4CCOCC4)C3)C2)cc1` (stereo not drawn) | 6.542% | 7.438% | -7.225% |
| `CC(NC(=O)Cc1cccs1)c1nnc2n1CCC2` (stereo not drawn) | 8.695% | -4.07% | -2.627% |
| `CN(C)c1ccc(C(=O)N2CCCC2c2noc(C3CC3)n2)nn1` (stereo not drawn) | -2.609% | 4.956% | -6.119% |
| `CCn1cnnc1CNS(=O)(=O)N1CCCC1c1ccco1` (stereo not drawn) | 3.016% | 2.646% | -7.956% |
| `COCCO[C@H]1CCN(C(=O)c2ccno2)[C@H]1Cc1ccncc1` | 0.2303% | 8.163% | -1.441% |
| `Cc1nc(O)cc([C@@H]2CN(S(=O)(=O)N(C)C)C[C@H]2c2ccccc2F)n1` | 1.995% | 6.061% | -2.055% |
| `Cc1nn(C)c2ncc(S(=O)(=O)N3CCN4CCCC4C3)cc12` (stereo not drawn) | 0.4186% | 1.63% | -36.42% |
| `CCN(C)Cc1cccc(CNC(=O)NCCc2ccccn2)c1` | -0.08875% | 3.015% | 3.194% |
| `O=C(NCC(=O)N1CCc2ccccc2C1)c1ccoc1` | -7.226% | 1.901% | 2.734% |
| `O=C(CS(=O)(=O)Cc1cc(Cl)c2c(c1)OCO2)N1CCCCCC1` | 2.195% | 4.046% | -19.93% |
| `CSCc1cccc(S(=O)(=O)N2CCCCCC2)c1` | 4.318% | 1.739% | -19.14% |
| `Cc1csc(CN(CC2CCCO2)C(=O)c2occc2C)n1` (stereo not drawn) | -0.1425% | 7.595% | -4.997% |
| `C[C@@H](NC(=O)c1cnccn1)c1c(-c2ccc(Cl)cc2)noc1C(=O)O` | 10.09% | 3.96% | -33.47% |
| `COc1cc(CNc2nc(C(F)(F)F)no2)cc(OC)c1OC` | 1.29% | 9.091% | -22.19% |
| `Cc1cccc(OCCC(=O)N(C)CCC#N)c1C` | 10.85% | 5.435% | -27.63% |
| `CNC(=O)c1cc2c(nc1NC(C)C)CCN(C(=O)NC(C)C)CC2` | 6.947% | 5.085% | 29.74% |
| `Cc1noc(NC(=O)c2ccc(Br)cc2)n1` | -0.6703% | 1.515% | 7.21% |
| `COCCN1CC(O)CN(C(=O)c2cccc(C(F)(F)F)c2)CC1=O` (stereo not drawn) | 8.07% | 11.24% | 10.84% |
| `CCC1=N[C@@]2(CC[C@@H]3CN(S(=O)(=O)CC)C[C@@H]32)C(=O)N1CC(C)C` | 2.544% | 3.261% | -16.68% |
| `CC(C)C(C)N(Cc1ccccn1)Cc1ccco1` (stereo not drawn) | 2.516% | -12.02% | 3.886% |
| `O=C(Cn1nnn(-c2cccs2)c1=O)N(CC1CCOC1)C1CC1` (stereo not drawn) | -3.113% | 4.217% | 2.018% |
| `CCOCC(O)CN1CCN(C(=O)c2cc(C)ccc2F)CC1` (stereo not drawn) | 5.035% | 7.429% | -20.67% |
| `CC(C)(CNc1cccc(Cl)c1)NC(=O)C1CCCN(CC(N)=O)C1` (stereo not drawn) | -2.79% | 0.8696% | -10.04% |
| `Cc1c(C2SCC(=O)Nc3c2c(O)nn3C2CCCCC2)cnn1C` (stereo not drawn) | 2.251% | -1.22% | -4.51% |
| `C[C@H](O)c1cnn(-c2ccccc2)c1` | -0.2907% | 3.867% | -34.3% |
| `CC(C)c1noc(C(C)N2CCN(Cc3noc(C(C)(C)C)n3)CC2)n1` (stereo not drawn) | -0.4556% | 4.843% | -12.99% |
| `CC1CCCN(Cc2ccc(C(N)=O)cc2)C1` (stereo not drawn) | -0.9095% | 0.4484% | 2.203% |
| `CCS(=O)(=O)N1CCC(NC(=O)c2ccccc2O)CC1` | 1.064% | 6.745% | -15.43% |
| `Cc1cc(CNc2ccnn2CC(C)C)ccc1-n1cncn1` | 4.144% | 6.18% | - |
| `O=C1CCC2(CCOC2)CN1Cc1nc2ccc(Cl)cc2[nH]1` (stereo not drawn) | 0.05656% | 3.804% | -47.05% |
| `CCc1cnc(N)nc1NCCCN1CCCCC1CO` (stereo not drawn) | 3.653% | 9.901% | -8.895% |
| `N#Cc1cccc(CN2Cc3nccn3CC(CN3CCCC3)C2)c1` (stereo not drawn) | 0.8834% | 17.09% | -12.27% |
| `O=C1CC(c2cccnc2)C2(CCN(S(=O)(=O)C3CC3)CC2)N1` (stereo not drawn) | 0.2445% | 1.657% | -19.79% |
| `O=C(Cc1csc(-c2ccccc2F)n1)NCc1cccc(C(=O)O)c1` | 7.495% | 9.901% | -0.2709% |
| `CCc1ccc(C(=O)NC(C)c2ccc(S(C)(=O)=O)c(F)c2)o1` (stereo not drawn) | 5.828% | -2.463% | 9.521% |
| `CN(Cc1cc(Br)cn1C)C(=O)c1cscn1` | 2.663% | 1.538% | -6.086% |
| `CCCn1cc(NC(=O)c2ccc(S(C)(=O)=O)cc2)ccc1=O` | 79.28% | 56.67% | 2.51% |
| `CO[C@@H]1CCN(c2ncccn2)[C@H]1Cc1ccccc1` | 6.46% | 7.463% | -28.91% |
| `O=C(CSc1ccc2c(c1)OCCO2)NS(=O)(=O)c1cc(F)ccc1F` | -2.57% | -3.175% | -1.831% |
| `CN(C)c1cc(CNC(=O)Nc2ccc(C#N)cc2)ccn1` | 1.68% | 3.812% | -17.21% |
| `Cc1nc(CN2CCC23CCN(C(=O)c2ccco2)CC3)cs1` | 4.325% | 1.105% | -2.83% |
| `O=C(CCc1ccsc1)NCC1CCN(c2ccccc2)C1` (stereo not drawn) | 4.045% | 8.943% | 1.163% |
| `CN(Cc1ccc(Cl)cc1)S(=O)(=O)N(C)Cc1cnn(C)c1` | 3.883% | -1.02% | -9.821% |
| `CC1CCCN(Cc2c(C3CCOCC3)[nH]c3ncccc23)C1` (stereo not drawn) | 1.148% | -7.027% | -24.28% |
| `CNc1nc(C2CCN(C(=O)CC3CCCC3)C2)nc2c1CN(C)CC2` (stereo not drawn) | -0.2279% | 15.97% | -17.99% |
| `CCN1Cc2c(C(=O)NC(C)C)ncn2-c2ccccc2S1(=O)=O` | 0% | -1.97% | - |
| `O=C(C1CCOc2ccccc2C1)N1Cc2cnn(CCO)c2C1` (stereo not drawn) | 6.302% | 7.514% | -5.033% |

The last 7 entries again:

Compound,PfKRS1,TcHisRS,Pks13 thioesterase
Cc1nc(CN2CCC23CCN(C(=O)c2ccco2)CC3)cs1,4.325%,1.105%,-2.83%
O=C(CCc1ccsc1)NCC1CCN(c2ccccc2)C1 (stereo not drawn),4.045%,8.943%,1.163%
CN(Cc1ccc(Cl)cc1)S(=O)(=O)N(C)Cc1cnn(C)c1,3.883%,-1.02%,-9.821%
CC1CCCN(Cc2c(C3CCOCC3)[nH]c3ncccc23)C1 (stereo not drawn),1.148%,-7.027%,-24.28%
CNc1nc(C2CCN(C(=O)CC3CCCC3)C2)nc2c1CN(C)CC2 (stereo not drawn),-0.2279%,15.97%,-17.99%
CCN1Cc2c(C(=O)NC(C)C)ncn2-c2ccccc2S1(=O)=O,0%,-1.97%,-
O=C(C1CCOc2ccccc2C1)N1Cc2cnn(CCO)c2C1 (stereo not drawn),6.302%,7.514%,-5.033%

From ChEMBL document CHEMBL3988442, “University of Dundee, Small-Polar-MMV Screening Library” (2021).